Read-outs that look alike come from different tables or passages of the source.
Test: Apparent permeability, 21 day cultured Caco-2 cell monolayer, bi-directional (Example 7)
Assay type: in vitro ADME
Conditions: human, Caco-2, 2 μM
Description: 10 mM stock solution of test compound was prepared in DMSO. 10 mM stock was diluted with 100% DMSO to prepare 0.2 mM, 0.2 mM stock was diluted with HBSS buffer to a final concentration of 2 μM.
Add 250 μL of DMEM to the basal compartment of 96 well multi-screen Caco-2 plates and seed 12000 cells/well (0.16×10^6 cells/ml) in all the apical wells required and 2 wells with only media as blank without cells. Place the Caco-2 plate in CO2 incubator at 37° C. for proliferation of cells.
The utilized media was replenished every alternate day by fresh medium. On 21st day, utilized medium was removed and washed twice with HBSS Buffer and incubated with HBSS buffer 30 min in incubator and initiated the assay.
75 μL of test compound was added to apical wells and 250 μL of HBSS buffer with 1% DMSO was added to basal wells. Samples were collected at 120 min and processed as stated below.
250 μL of test compound was added to basal wells and 75 μL of HBSS buffer with 1% DMSO was added to apical wells. Samples were collected at 120 min and processed as stated below.
Single point calibration curve in HBSS buffer was used. 100 μL of supernatant was diluted with 200 μL of water and submitted for LC-MS/MS analysis.
Efflux ratio=Papp of basal to apical samples/Papp of apical to basal samples
Recovery: {(dQ of Apical+dQ of Basal)/Standard dQ}*100

- Papp B→A at 120 min, 2 μM (average values, read-out: Papp Basal to Apical): 0.57 ×10⁻⁶ cm/s
- recovery at 120 min, 2 μM (read-out: A to B % Recovery): 93.9%
- recovery at 120 min, 2 μM (read-out: B to A % Recovery): 85.3%
SMILES: CC(C)NCC(O)COc1ccc(CC(N)=O)cc1 (stereo not drawn) [Atenolol]
